Measurements: article PMC3854969
Results are given in words; binding and its absence hold for the method and conditions named. Binding seen in cells or lysates may run through a third protein. These calls come from enrichment with a bait or labelling near it, and not all partners need be listed. Where a sequence is shown, tags or fusion partners need not be part of it. One block for each binder: values may come before it.

By UniProt entry, the sequences of proteins in these tests, tags left out. Where a name states a change or a piece, a line headed by the entry shows the natural chain unless it says otherwise.
UniProt Q3SXY8: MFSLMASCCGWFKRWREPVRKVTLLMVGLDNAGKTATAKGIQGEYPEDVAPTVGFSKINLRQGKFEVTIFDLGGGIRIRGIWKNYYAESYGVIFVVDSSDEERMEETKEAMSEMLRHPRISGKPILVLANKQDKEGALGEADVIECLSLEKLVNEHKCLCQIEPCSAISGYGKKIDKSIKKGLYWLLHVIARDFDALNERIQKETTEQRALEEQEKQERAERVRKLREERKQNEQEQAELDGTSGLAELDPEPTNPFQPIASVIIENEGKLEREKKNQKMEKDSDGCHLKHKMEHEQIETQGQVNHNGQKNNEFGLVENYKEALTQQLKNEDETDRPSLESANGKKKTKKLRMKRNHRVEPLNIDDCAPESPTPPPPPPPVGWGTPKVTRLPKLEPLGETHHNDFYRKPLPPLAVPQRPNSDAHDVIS

Experiments:
[1] = target: N-terminally SF (Strep-Flag)-tagged human ARL13B (wild type) (human) (UniProt Q3SXY8); experiment: affinity purification with mass spectrometry; SF-TAP: two steps (Strep-Tactin Superflow, then anti-Flag M2 agarose, Flag peptide elution) from lysates of HEK293T cells transiently expressing SF-tagged ARL13B; lysis in TBS with 0.5% Nonidet-P40, 4°C; compared with SF tag alone; LC-MS/MS
[2] = target: SF-ARL13B(T35N), predicted GDP-locked human ARL13B (human) (UniProt Q3SXY8); experiment: as above
[3] = target: C-terminally SF (Strep-Flag)-tagged human ARL13B (wild type) (human) (UniProt Q3SXY8); experiment: as above
[4] = target: N-terminally SF (Strep-Flag)-tagged human ARL13B (wild type) (human) (UniProt Q3SXY8); experiment: affinity purification with mass spectrometry; SILAC with one-step Strep-Tactin purification from HEK293T lysates; SF-tagged ARL13B against SF-TAP alone or mutated SF-tagged ARL13B; eluates combined; quantitative MS, at least 2-fold enrichment

- binding [1]: binds
- binding [2]: binds
- binding [3]: binds
- binding [4]: binds
B1: intraflagellar transport 25 (protein, UniProt Q9Y547 1-144)
chain: MRKIDLCLSSEGSEVILATSSDEKHPPENIIDGNPETFWTTTGMFPQEFIICFHKHVRIERLVIQSYFVQTLKIEKSTSKEPVDFEQWIEKDLVHTEGQLQNEEIVAHDGSATYLRFIIVSAFDHFASVHSVSAEGTVVSNLSS

- binding [1]: binds
- binding [2]: binds
- binding [3]: binds
- binding [4]: binds
B2: intraflagellar transport 81 (protein, UniProt Q8WYA0 1-676)
chain: MSDQIKFIMDSLNKEPFRKNYNLITFDSLEPMQLLQVLSDVLAEIDPKQLVDIREEMPEQTAKRMLSLLGILKYKPSGNATDMSTFRQGLVIGSKPVIYPVLHWLLQRTNELKKRAYLARFLIKLEVPSEFLQDETVADTNKQYEELMEAFKTLHKEYEQLKISGFSTAEIRKDISAMEEEKDQLIKRVEHLKKRVETAQNHQWMLKIARQLRVEKEREEYLAQQKQEQKNQLFHAVQRLQRVQNQLKSMRQAAADAKPESLMKRLEEEIKFNLYMVTEKFPKELENKKKELHFLQKVVSEPAMGHSDLLELESKINEINTEINQLIEKKMMRNEPIEGKLSLYRQQASIISRKKEAKAEELQEAKEKLASLEREASVKRNQTREFDGTEVLKGDEFKRYVNKLRSKSTVFKKKHQIIAELKAEFGLLQRTEELLKQRHENIQQQLQTMEEKKGISGYSYTQEELERVSALKSEVDEMKGRTLDDMSEMVKKLYSLVSEKKSALASVIKELRQLRQKYQELTQECDEKKSQYDSCAAGLESNRSKLEQEVRRLREECLQEESRYHYTNCMIKNLEVQLRRATDEMKAYISSDQQEKRKAIREQYTKNTAEQENLGKKLREKQKVIRESHGPNMKQAKMWRDLEQLMECKKQCFLKQQSQTSIGQVIQEGGEDRLIL
